Experimental data: PubChem BioAssay AID1347076 (National Center for Advancing Translational Sciences (NCATS), 2019)
The campaign covered roughly 400,000 compounds. About 13,000 (3.2%) were called active. Inconclusive means that the source gave no clear call. Such entries were picked first, then a sample of the others. The call rests on the fitted dose curve; in most records, active means well fitted cell-killing curve with a large enough effect; inconclusive means small, poorly fitted or top-dose-only effect, or effect the other way; inactive means flat fitted curve, though single readings scatter. Where the call is inconclusive, the potency comes from a doubtful curve fit.

Assay: qHTS assay for MDR1-selective chemotherapeutics: Primary screen using the drug-selected MDR subline cells KB-V1; further: nearly all actives have a fitted effect of over 60% in size
Details: KB-V1 MDR cells viability, CellTiter-Glo, 72 h; activity change, negative = cytotoxicity: at 46.1 µM (top of the series)
Procedure, shortened: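 Potencies derive from concentration-effect curves fitted to normalized luminescence (CellTiter-Glo) of KB-V1 cells treated for 72 h at 37 degrees C in phenol-red-free DMEM containing 10% FBS.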
On the % scale 0 is the no-effect control and ±100 the full control effect; potency means the concentration at half of the fitted maximal effect.

SMILES | Potency | activity change, negative = cytotoxicity
CC(C(=O)O)N1C(=O)CSc2ncccc21 (configuration not stated) | inconclusive: 20.6 µM [rising, single point] | 
CCCCn1c(=O)c2oc3ccccc3c2n(CC(=O)Nc2cc(C)ccc2C)c1=O | inactive | 
Cc1ccc(CNC(=O)Cc2c(C(=O)O)c(C)cn2C)cc1 | inconclusive: 2.59 µM [rising, full curve, poor fit] | 
COc1ccc(C(=O)c2sc(NC(C)C)nc2N)cc1OC | inconclusive: 23.1 µM [cytotoxic, single point] | 
CCOC(=O)N1CCN(C(=O)CSc2nnc(Cc3cccn3C)n2CCc2ccccc2)CC1 | inconclusive: 16.4 µM [cytotoxic, single point] | 
Cc1ccc2oc(=O)n(CCNC(=O)Nc3ccccc3C)c2c1 | inactive | 
C[C@@H]1COC(=O)[C@@H](CC(=O)OC(C)(C)C)C/C=C\C[C@@H](CC(=O)NCCO)C(=O)N1 | inactive | 
CCOC(=O)C1CCN(C(=O)CSc2c3c(nc4ccccc24)CCC3)CC1 | inactive | 
COc1cc(OC)cc(C(=O)NC(=S)NCc2ccco2)c1 | inactive | 
COc1ccc2c(c1)C(C)CC(C)(C)N2C(=O)CSc1nc2ccccc2s1 (configuration not stated) | inconclusive: 18.4 µM [cytotoxic, partial curve, poor fit] | 
COc1ccc(C=Nc2cccnc2N)cc1 | inconclusive: 25.9 µM [rising, single point] | 
O=C(COC(=O)c1ccc(Cl)cc1[N+](=O)[O-])NCc1ccco1 | inactive | 
Cc1cccc(C(=O)N2CCNC(=O)C2CC(=O)Nc2ccc(F)cc2)c1 (configuration not stated) | inactive | 
CCN=C1S/C(=C\c2ccc(O)c(OCC)c2)C(=O)N1CC | active: 18.4 µM | 
CCCCNC(=O)c1cccnc1SCC(=O)Nc1ccccc1OC | inconclusive: 7.31 µM [cytotoxic, partial curve] | 
CCCCNC(=O)Oc1ccc(C(=O)N2c3ccccc3NC(=O)C2C)cc1 (configuration not stated) | inconclusive: 8.2 µM [rising, partial curve, poor fit] | 
O=C(CSc1nc2ccc([N+](=O)[O-])cc2[nH]1)c1ccc(Cl)cc1 |  | inconclusive: -106%
COc1ccc(C(=O)CSc2nc3cc(C(=O)NC4CCCC4)ccc3c(=O)n2CC2CCCO2)cc1 (configuration not stated) | inactive | 
COc1ccc(NC(=S)Nc2cc(C(F)(F)F)ccc2F)cc1 | inconclusive: 2.91 µM [cytotoxic, partial curve, poor fit] | 
O=C(NCCS(=O)(=O)N1CCN(C(=O)c2ccco2)CC1)c1ccccc1 | inactive | 
COC(=O)c1cc2oc3ccccc3c2n1CC(=O)Nc1cccc(SC)c1 | inactive | 
CCOc1ccc2oc(C(=O)N3CCCN(C)CC3)c(C)c2c1 | inactive | 
O=C1C=C(c2ccccc2)C[C@@H](c2ccc(Cl)cc2)C1 | inactive | 
CCOC(=O)[C@]12CCC=C1N(Cc1ccc(Cl)cc1Cl)C(=O)[C@H](CC(=O)NCCCN1CCCC1=O)C2 | inactive | 
COC(=O)C1=C(C)NC(=O)CC1c1ccccc1OC (configuration not stated) | inactive | 
O=C(CCl)Nc1ccc(-c2ccccc2)cc1 | inconclusive: 20.6 µM [cytotoxic, single point] | 

SMILES | Potency | activity change, negative = cytotoxicity
COc1ccc(-c2nn3c(=O)cc(CN4CCN(C(=O)Nc5cc(C)ccc5C)CC4)nc3s2)cc1 | inactive | 
Cn1nc(C(F)(F)F)c(-c2ccc(Br)cc2)c1NC(=O)C1CCC1C(=O)O (configuration not stated) | inconclusive: 29.1 µM [rising, single point] | 
O=C(OCc1ccccc1F)c1cc([N+](=O)[O-])ccc1N1CCOCC1 | active: 18.4 µM | 
NC(Cc1ccc(C(F)(F)F)cc1)c1csc(NC(=O)Nc2ccccc2Oc2ccccc2)n1 (configuration not stated) | inactive | 
O=C(Nc1ccc(C(F)(F)F)cc1)c1cnc(N2CCN(c3ccccn3)CC2)c2ccccc12 | inactive | 
CCOC(=O)c1c(C)[nH]c(C)c1S(=O)(=O)N1CCC(C(=O)NCc2ccc(F)cc2)CC1 | inactive | 
Cc1ccc(-c2ccnc3cc(C)nn23)cc1 | inactive | 
O=C(NCC1CCCO1)c1cc2c([nH]c3ccccc32)c(-c2cccc(Br)c2)n1 (configuration not stated) | inconclusive: 29.1 µM [cytotoxic, single point] | 
COc1ccc(CCNC(=O)c2ccc(N(C)S(=O)(=O)c3ccc(C)cc3)cc2)cc1OC | inconclusive: 18.4 µM [cytotoxic, single point] | 
COc1ccccc1OCCNC(=O)C(=O)c1c[nH]c2ccccc12 | inactive | 
CCn1c(O)c(N=NC(=O)c2cccc(S(=O)(=O)N3CCCCC3)c2)c2ccccc21 | inconclusive: 16.4 µM [cytotoxic, partial curve] | 
COC(=O)C12OCC34C(CC5C(C)=C(O)C(=O)CC5(C)C3C(O)C1O)OC(=O)C(OC(=O)C=C(C)C)C24 (configuration not stated) | active: 7.31 µM | 
CCOC(=O)CC(=O)CSc1nc2c(cc1C#N)CCC2 | inactive | 
COc1cccc(C(=O)NCCS(=O)(=O)NCc2ccccn2)c1 | inactive | 
Cc1nc2ccn(Cc3cccnc3)c(=O)c2cc1C(=O)NCc1ccccc1 | inactive | 
CCCCc1c(-c2cccc(Cl)c2)ncn1CCc1ccccc1OC | active: 10.3 µM | 
O=C(CSc1nnc(-c2ccccc2Br)n1-c1ccccc1)c1ccc(F)cc1 | active: 18.4 µM | 
CC(C)Cn1c(N)c(C(=O)NCC2CCCO2)c2nc3ccccc3nc21 (configuration not stated) | inconclusive: 5.17 µM [cytotoxic, partial curve] | 
O=C(CSc1ncccn1)Nc1ncc(C(F)(F)F)cc1Cl | inactive | 
Cc1c(C(=O)NCc2cccc([N+](=O)[O-])c2)sc(=O)n1Cc1ccc(C(C)C)cc1 | active: 9.2 µM | 
CC1CCCCN1Cc1ccc(N(C)C)cc1 (configuration not stated) | inconclusive: 2.06 µM [rising, full curve] | 
CCN(CC)CCN(C(=O)c1ccc(S(=O)(=O)N2CCOCC2)cc1)c1nc2cc3c(cc2s1)OCCO3 | inactive | 
Cc1cc(C)n(-c2cccc(Cl)c2)c(=O)c1C#N | inactive | 
COc1ccc(S(=O)(=O)N2CCCCC2)cc1NC(=O)c1[nH]c(C)c(C(C)=O)c1C | inconclusive: 8.2 µM [cytotoxic, partial curve] | 
COc1ccc(-n2nnnc2-c2cnc3cc4c(cc3c2C)OCO4)cc1 | active: 9.2 µM | 
COC(=O)c1ccc(OCC2c3cc(OC)c(OC)cc3CCN2C(=O)c2ccc(OC)cc2)cc1 (configuration not stated) | inactive | 

3 entries already listed, sorted by heavy-atom count, rising.
SMILES | Potency | activity change, negative = cytotoxicity
O=C(CSc1nnc(-c2ccccc2Br)n1-c1ccccc1)c1ccc(F)cc1 | active: 18.4 µM | 
COc1ccc(CCNC(=O)c2ccc(N(C)S(=O)(=O)c3ccc(C)cc3)cc2)cc1OC | inconclusive: 18.4 µM [cytotoxic, single point] | 
COc1ccc(-c2nn3c(=O)cc(CN4CCN(C(=O)Nc5cc(C)ccc5C)CC4)nc3s2)cc1 | inactive | 

More entries

SMILES | Potency | activity change, negative = cytotoxicity
Oc1ccc(C[C@@H]2CNCCN2CCC23CC4CC(CC(C4)C2)C3)cc1 | inactive | 
C=CCC[C@@H](Cc1ccc(F)cc1)C(=O)OC[C@@H](Cc1c[nH]c2ccccc12)NC(=O)[C@H](CC=C)CC(=O)N(CCO)Cc1ccccc1 | active: 20.6 µM | 
CC(=O)N1CCN(C(=O)c2ccc(C)c(S(=O)(=O)N3CCCCC3)c2)CC1 | inconclusive: 32.6 µM [cytotoxic, single point] | 
OC[C@@H]1CN(CCN2CCOCC2)C[C@H](n2cnc3c(NC4CCCC4)ncnc32)O1 | inactive | 
Cc1ccc(NS(=O)(=O)c2ccc3c(c2)CC(=O)N3)cc1C | inconclusive: 14.6 µM [rising, partial curve, poor fit] | 
O=C1C2CCC(C(O)C2)N1Cc1ccccc1 (configuration not stated) | inconclusive: 29.1 µM [rising, single point] | 
CC1CCCCC1NC(=O)CN1C(=O)NC(Cc2ccccc2)(Cc2ccccc2)C1=O (configuration not stated) | inconclusive: 13 µM [cytotoxic, partial curve] | 
Nc1ncnc2nc(SCCOc3ccc(Cl)cc3)[nH]c12 | inconclusive: 0.461 µM [rising, partial curve, poor fit] | 
Brc1ccc([C@H]2C=C[C@H]3CCCN4CC[C@H]2[C@@H]3[C@]42CO2)cc1 | inactive | 
O=C(/C=C/c1ccco1)Nc1ccc(Oc2ccccc2)cc1 | inconclusive: 29.1 µM [cytotoxic, single point] | 
COc1ccc(N(C)S(=O)(=O)c2cccc(C(=O)Nc3nc(C)cs3)c2)cc1 | inconclusive: 29.1 µM [cytotoxic, single point] | 
COc1cccc(/C=C/c2ccncc2)c1OC | inconclusive: 25.9 µM [cytotoxic, single point] | 
O=C(COc1ccc(Cl)cc1Cl)Nc1ccc(CN2CCOCC2)cc1 | inactive | 
CC(=O)c1ccc(OC(C)C(=O)OCC(=O)NCCc2ccccc2)cc1 (configuration not stated) | inactive | 
CCCC(C)(C)C(=O)N1CCC1(C)C(=O)NS(=O)(=O)c1cccc(Cl)c1 (configuration not stated) | inactive | 
Clc1ccc(-n2nnnc2-c2cnc3ccccc3c2-c2ccccc2)cc1 | active: 16.4 µM | 
CCCCOC(=O)C1=C(C)NC2=C(C(=O)CCC2)C1c1cc(OC)ccc1OC (configuration not stated) | inconclusive: 14.6 µM [cytotoxic, partial curve, poor fit] | 
CC(=O)Nc1ccc(S(=O)(=O)NNC(=O)c2ccc([N+](=O)[O-])cc2)cc1 | inconclusive: 29.1 µM [rising, single point] | 
COc1ccc(OC)c(CN(CCN2CCOCC2)C(=O)Nc2ccccc2)c1 | inconclusive: 11.6 µM [cytotoxic, partial curve] | 
CCOc1ccc(CCNC(=O)Nc2ccccc2C)cc1OCC | inconclusive: 0.58 µM [cytotoxic, full curve, poor fit] | 
COc1ccccc1N1CCN(C(=O)CSc2nc(C)c(C)c(=O)[nH]2)CC1 | inconclusive: 23.1 µM [rising, single point] | 
CCOc1cccc(-c2c(C(=O)N/N=C/c3ccoc3)nnn2-c2nonc2N)c1 | inactive | 
CC(C)(C)C(=O)OCc1nc(-c2ccc(C(F)(F)F)cc2)cs1 | inactive | 
CCOC(=O)c1cnn(-c2ccccc2)c1NC(=O)CCl | inconclusive: 4.11 µM [cytotoxic, partial curve, poor fit] | 
CCc1cc(=O)oc2cc3occ(C)c3cc12 | inconclusive: 14.6 µM [cytotoxic, single point] | 
